This is one part of the list.
What was measured:
Assay in all cases: glycan array binding signal (z-score within array); higher = stronger binding
Settings in all cases: glycan notation: IUPAC condensed, linker removed
[1] = target: Neu5Ac(a2-3)Gal(b1-3)GalNAc
In short: (§1)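 Glycan array binding is given as a within-array Z-score, which can be read as non-binding when negative. The arrays, 3228 of them, came from the Consortium for Functional Glycomics database and were retained only where the protein sequence was available. Z-scores were averaged across arrays of the same protein sequence at different concentrations or buffers and across linkers.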

[2] = target: Neu5Ac(a2-3)Gal(b1-3)GalNAc(b1-3)Gal(a1-4)Gal(b1-4)Glc
In short: as §1

[3] = target: Neu5Ac(a2-3)Gal(b1-3)GalNAc(b1-4)Gal(b1-4)Glc
In short: as §1

[4] = target: Neu5Ac(a2-3)Gal(b1-3)GalNAc(b1-4)[Neu5Ac(a2-3)]Gal(b1-4)Glc
In short: as §1

[5] = target: Neu5Ac(a2-3)Gal(b1-3)GalNAc(b1-4)[Neu5Ac(a2-8)Neu5Ac(a2-3)]Gal(b1-4)Glc
In short: as §1

[6] = target: Neu5Ac(a2-3)Gal(b1-3)GalNAc6S
In short: as §1

[7] = target: Neu5Ac(a2-3)Gal(b1-3)GlcNAc
In short: as §1

[8] = target: Neu5Ac(a2-3)Gal(b1-3)GlcNAc(b1-2)Man
In short: as §1

[9] = target: Neu5Ac(a2-3)Gal(b1-3)GlcNAc(b1-2)Man(a1-3)[GlcNAc(b1-4)][Neu5Ac(a2-3)Gal(b1-3)GlcNAc(b1-2)Man(a1-6)]Man(b1-4)GlcNAc(b1-4)GlcNAc
In short: as §1

[10] = target: Neu5Ac(a2-3)Gal(b1-3)GlcNAc(b1-2)Man(a1-3)[Neu5Ac(a2-3)Gal(b1-3)GlcNAc(b1-2)Man(a1-6)]Man(b1-4)GlcNAc(b1-4)GlcNAc
In short: as §1

[11] = target: Neu5Ac(a2-3)Gal(b1-3)GlcNAc(b1-2)[Neu5Ac(a2-3)Gal(b1-3)GlcNAc(b1-4)]Man(a1-6)[Neu5Ac(a2-3)Gal(b1-3)GlcNAc(b1-2)Man(a1-3)]Man(b1-4)GlcNAc(b1-4)GlcNAc
In short: as §1

[12] = target: Neu5Ac(a2-3)Gal(b1-3)GlcNAc(b1-3)Gal(b1-3)GlcNAc
In short: as §1

[13] = target: Neu5Ac(a2-3)Gal(b1-3)GlcNAc(b1-3)Gal(b1-4)GlcNAc
In short: as §1

[14] = target: Neu5Ac(a2-3)Gal(b1-3)GlcNAc(b1-3)GalNAc
In short: as §1

[15] = target: Neu5Ac(a2-3)Gal(b1-3)GlcNAc(b1-6)GalNAc
In short: as §1

[16] = target: Neu5Ac(a2-3)Gal(b1-3)GlcNAc6S
In short: as §1

[17] = target: Neu5Ac(a2-3)Gal(b1-3)[Fuc(a1-4)]GlcNAc
In short: as §1

[18] = target: Neu5Ac(a2-3)Gal(b1-3)[Fuc(a1-4)]GlcNAc(b1-3)Gal(b1-3)[Fuc(a1-4)]GlcNAc
In short: as §1

[19] = target: Neu5Ac(a2-3)Gal(b1-3)[Fuc(a1-4)]GlcNAc(b1-3)Gal(b1-4)[Fuc(a1-3)]GlcNAc
In short: as §1

[20] = target: Neu5Ac(a2-3)Gal(b1-3)[GlcNAc(b1-6)]GalNAc
In short: as §1

[21] = target: Neu5Ac(a2-3)Gal(b1-3)[Neu5Ac(a2-6)]GalNAc
In short: as §1

[22] = target: Neu5Ac(a2-3)Gal(b1-3)[Neu5Ac(a2-6)]GlcNAc(b1-3)[Fuc(a1-3)[Gal(b1-4)]GlcNAc(b1-6)]Gal(b1-4)Glc
In short: as §1

[23] = target: Neu5Ac(a2-3)Gal(b1-3)]Neu5Ac(a2-3)Gal(b1-4)]GlcNAc
In short: as §1

[24] = target: Neu5Ac(a2-3)Gal(b1-4)Glc
In short: as §1

[25] = target: Neu5Ac(a2-3)Gal(b1-4)GlcNAc
In short: as §1

[26] = target: Neu5Ac(a2-3)Gal(b1-4)GlcNAc(b1-2)Man
In short: as §1

[27] = target: Neu5Ac(a2-3)Gal(b1-4)GlcNAc(b1-2)Man(a1-3)[GlcNAc(b1-4)][Neu5Ac(a2-3)Gal(b1-4)GlcNAc(b1-2)Man(a1-6)]Man(b1-4)GlcNAc(b1-4)GlcNAc
In short: as §1

[28] = target: Neu5Ac(a2-3)Gal(b1-4)GlcNAc(b1-2)Man(a1-3)[Neu5Ac(a2-3)Gal(b1-4)GlcNAc(b1-2)Man(a1-6)]Man(b1-4)GlcNAc(b1-4)GlcNAc
In short: as §1

[29] = target: Neu5Ac(a2-3)Gal(b1-4)GlcNAc(b1-2)Man(a1-3)[Neu5Ac(a2-3)Gal(b1-4)GlcNAc(b1-2)Man(a1-6)]Man(b1-4)GlcNAc(b1-4)[Fuc(a1-6)]GlcNAc
In short: as §1

[30] = target: Neu5Ac(a2-3)Gal(b1-4)GlcNAc(b1-2)Man(a1-3)[Neu5Ac(a2-6)Gal(b1-4)GlcNAc(b1-2)Man(a1-6)]Man(b1-4)GlcNAc(b1-4)GlcNAc
In short: as §1

[31] = target: Neu5Ac(a2-3)Gal(b1-4)GlcNAc(b1-2)[Neu5Ac(a2-3)Gal(b1-4)GlcNAc(b1-4)]Man(a1-3)[GlcNAc(b1-4)][Neu5Ac(a2-3)Gal(b1-4)GlcNAc(b1-2)[Neu5Ac(a2-3)Gal(b1-4)GlcNAc(b1-6)]Man(a1-6)]Man(b1-4)GlcNAc(b1-4)GlcNAc
In short: as §1

[32] = target: Neu5Ac(a2-3)Gal(b1-4)GlcNAc(b1-2)[Neu5Ac(a2-3)Gal(b1-4)GlcNAc(b1-4)]Man(a1-3)[GlcNAc(b1-4)][Neu5Ac(a2-3)Gal(b1-4)GlcNAc(b1-4)Man(a1-6)]Man(b1-4)GlcNAc(b1-4)GlcNAc
In short: as §1

[33] = target: Neu5Ac(a2-3)Gal(b1-4)GlcNAc(b1-2)[Neu5Ac(a2-3)Gal(b1-4)GlcNAc(b1-6)]Man(a1-6)[Neu5Ac(a2-3)Gal(b1-4)GlcNAc(b1-2)Man(a1-3)][GlcNAc(b1-4)]Man(b1-4)GlcNAc(b1-4)GlcNAc
In short: as §1

[34] = target: Neu5Ac(a2-3)Gal(b1-4)GlcNAc(b1-3)Gal
In short: as §1

[35] = target: Neu5Ac(a2-3)Gal(b1-4)GlcNAc(b1-3)Gal(b1-3)GlcNAc
In short: as §1

[36] = target: Neu5Ac(a2-3)Gal(b1-4)GlcNAc(b1-3)Gal(b1-4)GlcNAc
In short: as §1

[37] = target: Neu5Ac(a2-3)Gal(b1-4)GlcNAc(b1-3)Gal(b1-4)GlcNAc(b1-2)Man(a1-3)[Neu5Ac(a2-3)Gal(b1-4)GlcNAc(b1-3)Gal(b1-4)GlcNAc(b1-2)Man(a1-6)]Man(b1-4)GlcNAc(b1-4)GlcNAc
In short: as §1

B1: B936 (Bifidobacterium sp) (protein)
chain: MKNWKKAIALVASAAALVSVAACGPSNAGGSSDSGKKTVGFVAVGPEGGFRTANEKDIQKAFEDAGFDLTYSPTQNNDQQKQIQAFNKFVNDEVDAIILSSTEDSGWDDSLKKAAEAEIPVFTVDRNVDVKDAEAKKAIVAHIGPSNVWCGEQAAEFVNKNFPDGANGFILEGPAGLSVVKDRGTGWGNKVASNVKVLESQSANWSTDEAKTVTAGLLDKYKSDNPQFIFAQNDEMGLGAAQAVDAAGLKGKVKIITIDGTKNALQALVDGDLSYVIEYNPIFGKETAQAVKDYLDGKTVEKDIEIESKTFDAASAKEALDNNTRAY
For B1, the “glycan array binding signal (z-score)” value [1] was -0.446, the “glycan array binding signal (z-score)” value [2] was 1.19 and the “glycan array binding signal (z-score)” value [3] was 0.147. For the same binder, the “glycan array binding signal (z-score)” value [4] was 0.888, the “glycan array binding signal (z-score)” value [5] was -0.073 and the “glycan array binding signal (z-score)” value [6] was -0.408. For the same binder, the “glycan array binding signal (z-score)” value [7] was 0.032, the “glycan array binding signal (z-score)” value [8] was 0.307 and the “glycan array binding signal (z-score)” value [9] was 0.078. For the same binder, the “glycan array binding signal (z-score)” value [10] was 0.001, the “glycan array binding signal (z-score)” value [11] was 0.786 and the “glycan array binding signal (z-score)” value [12] was -0.504. The “glycan array binding signal (z-score)” value [13] was -0.335, the “glycan array binding signal (z-score)” value [14] was 0.225 and the “glycan array binding signal (z-score)” value [15] was 0.636. For the same binder, the “glycan array binding signal (z-score)” value [16] was -0.818, the “glycan array binding signal (z-score)” value [17] was -0.033 and the “glycan array binding signal (z-score)” value [18] was -0.339. For the same binder, the “glycan array binding signal (z-score)” value [19] was 0.193, the “glycan array binding signal (z-score)” value [20] was -0.81 and the “glycan array binding signal (z-score)” value [21] was -0.159. For the same binder, the “glycan array binding signal (z-score)” value [22] was 0.012, the “glycan array binding signal (z-score)” value [23] was -0.582 and the “glycan array binding signal (z-score)” value [24] was 0.008. For the same binder, the “glycan array binding signal (z-score)” value [25] was -0.225, the “glycan array binding signal (z-score)” value [26] was 1.06 and the “glycan array binding signal (z-score)” value [27] was -0.08. The “glycan array binding signal (z-score)” value [28] was -0.422, the “glycan array binding signal (z-score)” value [29] was -0.006 and the “glycan array binding signal (z-score)” value [30] was -0.04. For the same binder, the “glycan array binding signal (z-score)” value [31] was -0.471, the “glycan array binding signal (z-score)” value [32] was 0.275 and the “glycan array binding signal (z-score)” value [33] was -0.34. The “glycan array binding signal (z-score)” value [34] was -0.629, the “glycan array binding signal (z-score)” value [35] was 0.313 and the “glycan array binding signal (z-score)” value [36] was -0.527. The “glycan array binding signal (z-score)” value [37] was -0.277.
